These are literature values, as cited in patent US11433143B2, “Nano-enabled immunotherapy in cancer” (The Regents of the University of California, priority 2017, dated 2022).

≈ marks a conversion by molar mass, not a printed value.

The conditions of this data set: cited from earlier work.

`CC(=O)O[C@@]12CO[C@@H]1C[C@H](O)[C@@]1(C)C(=O)[C@H](O)C3=C(C)[C@@H](OC(=O)[C@H](O)[C@@H](NC(=O)OC(C)(C)C)c4ccccc4)C[C@@](O)([C@@H](OC(=O)c4ccccc4)[C@H]21)C3(C)C` [docetaxel]: the solubility in ethanol is around 100 mg/mL (≈ 124 mM).
